Test results from PubChem BioAssay AID540276 (National Center for Advancing Translational Sciences (NCATS), 2011).
The campaign covered roughly 300,000 compounds. About 5,400 (1.8%) were called active. Inconclusive means that the source gave no clear call. Such entries were picked first, then a sample of the others. Calls come from the whole dose curve; tested in HEK293 cells. Potencies of inconclusive entries are doubtful fits and often do not repeat.

Test: qHTS for inhibitors of binding or entry into cells for Marburg Virus
Conditions: Marburg virus pseudotyped entry inhibition, cell reporter; series mostly up to 37.8 µM
Potency is the fitted concentration of half-maximal effect.

Row | Compound | Potency
1 | CC(NC(=O)c1ccccc1NC(=O)CN1CCN(c2ccccc2O)CC1)c1ccccc1 (stereo not given) | inconclusive: 20 µM [inhibitor, single point]
2 | O=c1[nH]c(-c2ccccc2)nc(-c2ccccc2)c1Cl | inactive
3 | CN(Cc1ccccc1)C(=O)CSc1c2c(nc3ccc(Cl)cc13)CCCC2 | inconclusive: 25.1 µM [inhibitor, single point]
4 | COc1cc(C(=O)Nc2ccc(S(=O)(=O)N3CCCCC3)cc2)ccc1OCC(=O)N1CCOCC1 | inconclusive: 5.62 µM [activator, single point]
5 | COc1ccc(/C=C/C(=O)c2ccc(O)cc2)cc1COc1ccc(F)cc1 | inactive
6 | O=C(/C=C/NCc1cccnc1)c1ccc(-c2ccccc2)cc1 | inconclusive: 10 µM [inhibitor, single point]
7 | N#Cc1ccc(-c2ccc(OCC(=O)NCCc3ccccc3)cc2)cc1 | inconclusive: 0.631 µM [activator, partial curve, poor fit]
8 | Cc1ccc(-n2cc(CNCCCn3cccn3)c(-c3cccc(C)c3)n2)cc1 | inconclusive: 11.2 µM [inhibitor, partial curve, poor fit]
9 | COc1ccccc1/C=C/C=N/n1c(-c2ccc(C)cc2)n[nH]c1=S | inconclusive: 0.316 µM [inhibitor, full curve, poor fit]
10 | CC(=O)Nc1ccc2c(c1)C(=Nc1ccc(C)cc1)c1ccccc1-2 | inactive
11 | C#CCOn1c(-n2nc(C)cc2C)nc2ccccc2c1=O | inconclusive: 3.16 µM [activator, partial curve, poor fit]
12 | Cc1[nH]c2ccccc2c1C1C(c2ccccc2)=NN=C(C(C)C)N1O (stereo not given) | inactive
13 | CCOC(=O)c1c(NC(=S)NNS(=O)(=O)c2ccc(Br)cc2)sc2c1CCCCC2 | inactive
14 | CSCCC(NC(=O)c1ccccc1Br)C(=O)NCC1CCCCC1 (stereo not given) | inactive
15 | CC(C)Cc1nnc(NC(=O)c2cc3c(s2)CCC3)s1 | inactive
16 | Cc1cc(C(=O)CN2C(=O)c3ccccc3S2(=O)=O)c(C)n1C(C)C | active: 0.501 µM
17 | CC(C)N(C(=O)COC(=O)CNC(=O)c1ccc(Br)cc1)c1ccccc1 | inconclusive: 35.5 µM [activator, single point]
18 | Cc1ccc(C(=O)Nc2cccc([N+](=O)[O-])c2)cc1S(=O)(=O)Nc1cccc(C(=O)O)c1 | inactive
19 | CCOc1ccc(/C(O)=C2\C(=O)C(=O)N(CCN(CC)CC)[C@H]2c2ccco2)cc1 | inconclusive: 0.562 µM [activator, full curve, poor fit]
20 | CCC(C)N(C)Cc1cccc(C2(O)CCN(S(=O)(=O)c3ccc(F)cc3)CC2)c1 (stereo not given) | inconclusive: 18.3 µM [inhibitor, single point]

Arranged by length of the SMILES (descending): part of the list above.
Row | Compound | Potency
18 | Cc1ccc(C(=O)Nc2cccc([N+](=O)[O-])c2)cc1S(=O)(=O)Nc1cccc(C(=O)O)c1 | inactive
5 | COc1ccc(/C=C/C(=O)c2ccc(O)cc2)cc1COc1ccc(F)cc1 | inactive
2 | O=c1[nH]c(-c2ccccc2)nc(-c2ccccc2)c1Cl | inactive
